# Several values for one entry are separate records, joined by “and”; a condition that tells them apart may be missing. Identical values can stand only once. At least one read-out could not be matched to a standard name with certainty.
# Assay: Cross-over plasma pharmacokinetics of intranasal versus intramuscular flunixin;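 also: grower pigs about 8 weeks old weighing 18.0-22.0 kg, randomized cross-over of both routes separated by a 5-day washout, blood taken via jugular vein catheter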
# Settings: 2.2 mg/kg
smiles,measurement,setting,value
Cc1c(Nc2ncccc2C(=O)O)cccc1C(F)(F)F [flunixin meglumine],Relative bioavailability,"IN compared to IM, individual grower pig (Pig # 1-6, one line per pig)",39.11% and 47.63% and 113.78% and 82.84% and 94.22% and 95.06%
same,Relative bioavailability,"intranasal compared to intramuscular, six grower pigs, median",88.5 (39.1-113.8) %

# Reference: patent publication US20240285594A1, “COMPOSITIONS AND METHODS FOR TREATING PAIN IN ANIMALS” (North Carolina State University, priority 2023, published 2024)
